Laboratory results from PubChem BioAssay AID1159614 (National Center for Advancing Translational Sciences (NCATS), 2016).
In all, about 45,000 compounds went through this assay and about 65 (0.1%) were called active. The source calls these results inconclusive, neither active nor inactive. Calls follow the shape of the dose curve; as a rule, active = well fitted activation curve with a large enough effect; inconclusive = small, poorly fitted or top-dose-only effect; inactive = no such curve, though single readings can be large or run the other way.

Amino acid sequences for entries named in this document (tags omitted).
UniProt P54803, whole entry G286D: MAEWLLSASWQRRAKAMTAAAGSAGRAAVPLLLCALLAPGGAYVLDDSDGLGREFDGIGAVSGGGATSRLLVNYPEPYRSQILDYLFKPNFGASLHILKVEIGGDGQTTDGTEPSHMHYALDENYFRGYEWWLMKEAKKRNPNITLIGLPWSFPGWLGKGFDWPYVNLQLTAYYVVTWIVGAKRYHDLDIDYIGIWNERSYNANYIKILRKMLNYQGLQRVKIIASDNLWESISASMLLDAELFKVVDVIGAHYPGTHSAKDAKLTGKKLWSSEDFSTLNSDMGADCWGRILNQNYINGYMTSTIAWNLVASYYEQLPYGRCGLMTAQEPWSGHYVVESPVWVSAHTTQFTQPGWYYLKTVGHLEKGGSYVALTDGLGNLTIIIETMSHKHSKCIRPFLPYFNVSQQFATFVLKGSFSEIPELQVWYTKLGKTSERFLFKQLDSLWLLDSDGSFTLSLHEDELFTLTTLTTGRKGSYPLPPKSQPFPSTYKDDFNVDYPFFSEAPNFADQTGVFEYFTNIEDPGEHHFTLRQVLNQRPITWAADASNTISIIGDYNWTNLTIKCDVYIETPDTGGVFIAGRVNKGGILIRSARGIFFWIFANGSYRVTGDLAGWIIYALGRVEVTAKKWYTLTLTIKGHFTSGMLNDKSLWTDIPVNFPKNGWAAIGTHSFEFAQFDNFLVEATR

Biological target: Galactocerebrosidase (Homo sapiens) (UniProt P54803)
Experiment: A Novel Cell-Based Assay to Identify Small Molecules for B -Galactocerebrosidase; also: nearly all actives have a fitted effect of over 65% in size
Settings: 145M-Twi-hGALC-G270D cells (Twitcher mouse brain line with human GALC G270D), HMU-beta-Gal fluorescence, 48 h
Potency is read from the fitted curve at half-maximal effect.

Question: Which Potency does the source give for `O=C(NCC1(N2CCOCC2)CCCCC1)c1ccccc1[N+](=O)[O-]` here?
Answer: inconclusive: 794 nM
